Our source for the binding values is publication PMC10950348.

By UniProt entry, the sequences of proteins in these tests, tags left out.
UniProt Q00534: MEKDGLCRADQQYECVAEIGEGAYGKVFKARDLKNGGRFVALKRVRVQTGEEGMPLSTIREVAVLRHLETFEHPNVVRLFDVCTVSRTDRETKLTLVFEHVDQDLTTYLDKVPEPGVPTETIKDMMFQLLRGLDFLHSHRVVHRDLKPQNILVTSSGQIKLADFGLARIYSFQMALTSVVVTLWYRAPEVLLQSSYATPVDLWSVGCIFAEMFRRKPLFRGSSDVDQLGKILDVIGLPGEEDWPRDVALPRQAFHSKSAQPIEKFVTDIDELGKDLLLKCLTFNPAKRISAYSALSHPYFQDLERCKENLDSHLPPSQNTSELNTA

Results are given in words; binding and its absence hold for the method and conditions named. In cells and extracts the contact can be indirect. Some entries that bind do so weakly or less than the wild type.

The experiment deals with T1, cyclin I-like protein (CCNI2) (human (in human pancreatic cancer cells)) (UniProt Q6ZMN8).
T1 sequence: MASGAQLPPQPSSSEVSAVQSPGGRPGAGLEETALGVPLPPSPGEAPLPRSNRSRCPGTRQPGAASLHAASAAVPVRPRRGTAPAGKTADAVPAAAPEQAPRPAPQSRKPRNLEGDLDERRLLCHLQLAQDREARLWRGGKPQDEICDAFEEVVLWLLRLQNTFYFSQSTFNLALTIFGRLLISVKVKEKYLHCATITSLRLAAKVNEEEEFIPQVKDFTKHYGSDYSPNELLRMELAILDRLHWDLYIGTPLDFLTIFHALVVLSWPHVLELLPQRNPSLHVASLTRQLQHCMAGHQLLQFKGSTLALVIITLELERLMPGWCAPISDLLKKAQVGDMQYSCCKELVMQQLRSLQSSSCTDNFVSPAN
Nature of the experiment: co-IP; Co-IP in pancreatic cancer cells, detected by immunoblotting; precipitating antibody, cell line and buffer not told. A general note: A western blot detects proteins with antibodies after separation by electrophoresis.

On to “cyclin-dependent kinase 5 (CDK5) (from UniProt Q00535 1-292)”, for which the binding result is listed as “binds”.

As to “cyclin-dependent kinase 6 (CDK6) (from UniProt Q00534 1-326)”, the binding result is “binds”.
